The target in the assay is T1, antigen of the affinity maturation selections of antibody 3131 (IL-18Rβ, construct not named) (UniProt O95256).
T1 sequence (looked up): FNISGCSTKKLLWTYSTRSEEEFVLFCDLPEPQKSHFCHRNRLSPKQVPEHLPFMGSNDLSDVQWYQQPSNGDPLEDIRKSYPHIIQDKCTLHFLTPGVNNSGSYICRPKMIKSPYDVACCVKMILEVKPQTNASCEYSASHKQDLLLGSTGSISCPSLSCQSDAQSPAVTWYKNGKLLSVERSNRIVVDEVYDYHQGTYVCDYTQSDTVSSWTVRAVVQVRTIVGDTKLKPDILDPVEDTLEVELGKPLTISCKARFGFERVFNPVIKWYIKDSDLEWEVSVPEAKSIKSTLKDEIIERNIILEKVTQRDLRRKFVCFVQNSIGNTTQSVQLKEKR
The experiment in a line: affinity-based solution-phase phage display selection, decreasing antigen concentration.

From US20240262919A1 (SHANGHAITECH UNIVERSITY, published 2024) come the findings set out here.

These are yes or no findings as the source states them, for the method shown. Some entries that bind do so weakly or less than the wild type.

B1: 3131 AM2-O-26 (Fab, V domains shown)
VH: EVQLVESGGGLVQPGGSLRLSCAASGFSLYYSSMHWVRQAPGKGLEWVASIYSSGGSTSYADSVKGRFTISADTSKNTAYLQMNSLRAEDTAVYYCARSSFSHGYGWYGLDYWGQGTLVTVSS
VL: DIQMTQSPSSLSASVGDRVTITCRASQSVSSAVAWYQQKPGKAPRLLIYGASSLYSGVPSRFSGSRSGTDFTLTISSLQPEDFATYYCQQYGYHDAGLITFGQGTKVEIK
For the molecule B1, the binding result was “binds”.

B2: 3131 AM2-O-27 (Fab, V domains shown)
VH: EVQLVESGGGLVQPGGSLRLSCAASGFNLYYSSMHWVRQAPGKGLEWVASIYSSSGDTHYADSVKGRFTISADTSKNTAYLQMNSLRAEDTAVYYCARSSFSHGYGWYGLDYWGQGTLVTVSS
VL: DIQMTQSPSSLSASVGDRVTITCRASQSVSSAVAWYQQKPGKAPRLLIYGASSLYSGVPSRFSGSRSGTDFTLTISSLQPEDFATYYCQQYGYHDAGLITFGQGTKVEIK
Consider B2, for which the binding entry is reported as “binds”.

B3: 3131 AM2-O-41 (Fab, V domains shown)
VH: EVQLVESGGGLVQPGGSLRLSCAASGFDLYYSSMHWVRQAPGKGLEWVASIYSSGGSTSYADSVKGRFTISADTSKNTAYLQMNSLRAEDTAVYYCARSSFSHGYGWYGLDYWGQGTLVTVSS
VL: DIQMTQSPSSLSASVGDRVTITCRASQSVSSAVAWYQQKPGKAPRLLIYGASSLYSGVPSRFSGSRSGTDFTLTISSLQPEDFATYYCQQYGYHGAGLITFGQGTKVEIK
On to B3, for which the binding result is “binds”.

B4: 3131 AM2-O-36 (Fab, V domains shown)
VH: EVQLVESGGGLVQPGGSLRLSCAASGFTLYYSSMHWVRQAPGKGLEWVASIYSSSGDTHYADSVKGRFTISADTSKNTAYLQMNSLRAEDTAVYYCARSSFSHGYGWYGLDYWGQGTLVTVSS
VL: DIQMTQSPSSLSASVGDRVTITCRASQSVSSAVAWYQQKPGKAPRLLIYSASSLYSGVPSRFSGSRSGTDFTLTISSLQPEDFATYYCQQYGYHGAGLITFGQGTKVEIK
With B4, the binding entry was “binds”.

B5: 3131 AM2-O-40 (Fab, V domains shown)
VH: EVQLVESGGGLVQPGGSLRLSCAASGFTLYYSSMHWVRQAPGKGLEWVASIYSSGGSTSYADSVKGRFTISADTSKNTAYLQMNSLRAEDTAVYYCARSSFSHGYGWYGLDYWGQGTLVTVSS
VL: DIQMTQSPSSLSASVGDRVTITCRASQSVSSAVAWYQQKPGKAPRLLIYGASSLYSGVPSRFSGSRSGTDFTLTISSLQPEDFATYYCQQYGYHGAGLITFGQGTKVEIK
For the molecule B5, the binding result is given as “binds”.

B6: 3131 AM2-O-29 (Fab, V domains shown)
VH: EVQLVESGGGLVQPGGSLRLSCAASGFDLYYSSMHWVRQAPGKGLEWVASIYSSSGDTHYADSVKGRFTISADTSKNTAYLQMNSLRAEDTAVYYCARSSFSHGYGWYGLDYWGQGTLVTVSS
VL: DIQMTQSPSSLSASVGDRVTITCRASQSVSSAVAWYQQKPGKAPRLLIYGASSLYSGVPSRFSGSRSGTDFTLTISSLQPEDFATYYCQQYGYHDAGLITFGQGTKVEIK
Consider B6, for which the binding entry is “binds”.

B7: 3131 AM2-O-44 (Fab, V domains shown)
VH: EVQLVESGGGLVQPGGSLRLSCAASGFTLYYSSMHWVRQAPGKGLEWVASIYSSSGDTHYADSVKGRFTISADTSKNTAYLQMNSLRAEDTAVYYCARSSFSHGYGWYGLDYWGQGTLVTVSS
VL: DIQMTQSPSSLSASVGDRVTITCRASQSVSSAVAWYQQKPGKAPRLLIYGASSLYSGVPSRFSGSRSGTDFTLTISSLQPEDFATYYCQQYGYHGAGLITFGQGTKVEIK
As to B7, the binding result is given as “binds”.

B8: 3131 AM2-O-43 (Fab, V domains shown)
VH: EVQLVESGGGLVQPGGSLRLSCAASGFNLYYSSMHWVRQAPGKGLEWVASIYSSSGDTHYADSVKGRFTISADTSKNTAYLQMNSLRAEDTAVYYCARSSFSHGYGWYGLDYWGQGTLVTVSS
VL: DIQMTQSPSSLSASVGDRVTITCRASQSVSSAVAWYQQKPGKAPRLLIYGASSLYSGVPSRFSGSRSGTDFTLTISSLQPEDFATYYCQQYGYHGAGLITFGQGTKVEIK
On to B8, for which the binding result is recorded as “binds”.

B9: 3131 AM2-O-37 (Fab, V domains shown)
VH: EVQLVESGGGLVQPGGSLRLSCAASGFDLYYSSMHWVRQAPGKGLEWVASIYSSSGDTHYADSVKGRFTISADTSKNTAYLQMNSLRAEDTAVYYCARSSFSHGYGWYGLDYWGQGTLVTVSS
VL: DIQMTQSPSSLSASVGDRVTITCRASQSVSSAVAWYQQKPGKAPRLLIYSASSLYSGVPSRFSGSRSGTDFTLTISSLQPEDFATYYCQQYGYHGAGLITFGQGTKVEIK
B9: the binding entry is on record as “binds”.

B10: 3131 AM2-O-42 (Fab, V domains shown)
VH: EVQLVESGGGLVQPGGSLRLSCAASGFSLYYSSMHWVRQAPGKGLEWVASIYSSGGSTSYADSVKGRFTISADTSKNTAYLQMNSLRAEDTAVYYCARSSFSHGYGWYGLDYWGQGTLVTVSS
VL: DIQMTQSPSSLSASVGDRVTITCRASQSVSSAVAWYQQKPGKAPRLLIYGASSLYSGVPSRFSGSRSGTDFTLTISSLQPEDFATYYCQQYGYHGAGLITFGQGTKVEIK
Take B10: the binding entry is recorded as “binds”.

B11: 3131 AM2-O-45 (Fab, V domains shown)
VH: EVQLVESGGGLVQPGGSLRLSCAASGFDLYYSSMHWVRQAPGKGLEWVASIYSSSGDTHYADSVKGRFTISADTSKNTAYLQMNSLRAEDTAVYYCARSSFSHGYGWYGLDYWGQGTLVTVSS
VL: DIQMTQSPSSLSASVGDRVTITCRASQSVSSAVAWYQQKPGKAPRLLIYGASSLYSGVPSRFSGSRSGTDFTLTISSLQPEDFATYYCQQYGYHGAGLITFGQGTKVEIK
For B11, the binding result was “binds”.

B12: 3131 AM2-O-33 (Fab, V domains shown)
VH: EVQLVESGGGLVQPGGSLRLSCAASGFDLYYSSMHWVRQAPGKGLEWVASIYSSGGSTSYADSVKGRFTISADTSKNTAYLQMNSLRAEDTAVYYCARSSFSHGYGWYGLDYWGQGTLVTVSS
VL: DIQMTQSPSSLSASVGDRVTITCRASQSVSSAVAWYQQKPGKAPRLLIYSASSLYSGVPSRFSGSRSGTDFTLTISSLQPEDFATYYCQQYGYHGAGLITFGQGTKVEIK
Take B12: the binding entry was “binds”.

B13: 3131 AM2-O-39 (Fab, V domains shown)
VH: EVQLVESGGGLVQPGGSLRLSCAASGFNLYYSSMHWVRQAPGKGLEWVASIYSSGGSTSYADSVKGRFTISADTSKNTAYLQMNSLRAEDTAVYYCARSSFSHGYGWYGLDYWGQGTLVTVSS
VL: DIQMTQSPSSLSASVGDRVTITCRASQSVSSAVAWYQQKPGKAPRLLIYGASSLYSGVPSRFSGSRSGTDFTLTISSLQPEDFATYYCQQYGYHGAGLITFGQGTKVEIK
For the molecule B13, the binding entry was “binds”.

B14: 3131 AM2-O-30 (Fab, V domains shown)
VH: EVQLVESGGGLVQPGGSLRLSCAASGFSLYYSSMHWVRQAPGKGLEWVASIYSSSGDTHYADSVKGRFTISADTSKNTAYLQMNSLRAEDTAVYYCARSSFSHGYGWYGLDYWGQGTLVTVSS
VL: DIQMTQSPSSLSASVGDRVTITCRASQSVSSAVAWYQQKPGKAPRLLIYGASSLYSGVPSRFSGSRSGTDFTLTISSLQPEDFATYYCQQYGYHDAGLITFGQGTKVEIK
In the case of B14, the binding result was “binds”.

B15: 3131 AM2-O-32 (Fab, V domains shown)
VH: EVQLVESGGGLVQPGGSLRLSCAASGFTLYYSSMHWVRQAPGKGLEWVASIYSSGGSTSYADSVKGRFTISADTSKNTAYLQMNSLRAEDTAVYYCARSSFSHGYGWYGLDYWGQGTLVTVSS
VL: DIQMTQSPSSLSASVGDRVTITCRASQSVSSAVAWYQQKPGKAPRLLIYSASSLYSGVPSRFSGSRSGTDFTLTISSLQPEDFATYYCQQYGYHGAGLITFGQGTKVEIK
For the molecule B15, the binding result is recorded as “binds”.

B16: 3131 AM2-O-35 (Fab, V domains shown)
VH: EVQLVESGGGLVQPGGSLRLSCAASGFNLYYSSMHWVRQAPGKGLEWVASIYSSSGDTHYADSVKGRFTISADTSKNTAYLQMNSLRAEDTAVYYCARSSFSHGYGWYGLDYWGQGTLVTVSS
VL: DIQMTQSPSSLSASVGDRVTITCRASQSVSSAVAWYQQKPGKAPRLLIYSASSLYSGVPSRFSGSRSGTDFTLTISSLQPEDFATYYCQQYGYHGAGLITFGQGTKVEIK
Consider B16, for which the binding entry is on record as “binds”.

B17: 3131 AM2-O-31 (Fab, V domains shown)
VH: EVQLVESGGGLVQPGGSLRLSCAASGFNLYYSSMHWVRQAPGKGLEWVASIYSSGGSTSYADSVKGRFTISADTSKNTAYLQMNSLRAEDTAVYYCARSSFSHGYGWYGLDYWGQGTLVTVSS
VL: DIQMTQSPSSLSASVGDRVTITCRASQSVSSAVAWYQQKPGKAPRLLIYSASSLYSGVPSRFSGSRSGTDFTLTISSLQPEDFATYYCQQYGYHGAGLITFGQGTKVEIK
For B17, the binding result is on record as “binds”.

B18: 3131 AM2-O-34 (Fab, V domains shown)
VH: EVQLVESGGGLVQPGGSLRLSCAASGFSLYYSSMHWVRQAPGKGLEWVASIYSSGGSTSYADSVKGRFTISADTSKNTAYLQMNSLRAEDTAVYYCARSSFSHGYGWYGLDYWGQGTLVTVSS
VL: DIQMTQSPSSLSASVGDRVTITCRASQSVSSAVAWYQQKPGKAPRLLIYSASSLYSGVPSRFSGSRSGTDFTLTISSLQPEDFATYYCQQYGYHGAGLITFGQGTKVEIK
For the molecule B18, the binding entry is given as “binds”.

B19: 3131 AM2-O-38 (Fab, V domains shown)
VH: EVQLVESGGGLVQPGGSLRLSCAASGFSLYYSSMHWVRQAPGKGLEWVASIYSSSGDTHYADSVKGRFTISADTSKNTAYLQMNSLRAEDTAVYYCARSSFSHGYGWYGLDYWGQGTLVTVSS
VL: DIQMTQSPSSLSASVGDRVTITCRASQSVSSAVAWYQQKPGKAPRLLIYSASSLYSGVPSRFSGSRSGTDFTLTISSLQPEDFATYYCQQYGYHGAGLITFGQGTKVEIK
For the molecule B19, the binding entry is “binds”.

B20: 3131 AM2-O-28 (Fab, V domains shown)
VH: EVQLVESGGGLVQPGGSLRLSCAASGFTLYYSSMHWVRQAPGKGLEWVASIYSSSGDTHYADSVKGRFTISADTSKNTAYLQMNSLRAEDTAVYYCARSSFSHGYGWYGLDYWGQGTLVTVSS
VL: DIQMTQSPSSLSASVGDRVTITCRASQSVSSAVAWYQQKPGKAPRLLIYGASSLYSGVPSRFSGSRSGTDFTLTISSLQPEDFATYYCQQYGYHDAGLITFGQGTKVEIK
B20: the binding entry is “binds”.
